Measurements taken from patent US20070066800A1, “Apo2l(trail) receptor binding peptides and uses thereof” (priority 2003, published 2007).

Protein sequences, listed by entry. Tags and fused reporters are not part of them. Chains listed by the source or under a name are the forms on record and can include a tag or linker. Residues count along the entry.
UniProt Q9UBN6, 56-199 with tags or gaps: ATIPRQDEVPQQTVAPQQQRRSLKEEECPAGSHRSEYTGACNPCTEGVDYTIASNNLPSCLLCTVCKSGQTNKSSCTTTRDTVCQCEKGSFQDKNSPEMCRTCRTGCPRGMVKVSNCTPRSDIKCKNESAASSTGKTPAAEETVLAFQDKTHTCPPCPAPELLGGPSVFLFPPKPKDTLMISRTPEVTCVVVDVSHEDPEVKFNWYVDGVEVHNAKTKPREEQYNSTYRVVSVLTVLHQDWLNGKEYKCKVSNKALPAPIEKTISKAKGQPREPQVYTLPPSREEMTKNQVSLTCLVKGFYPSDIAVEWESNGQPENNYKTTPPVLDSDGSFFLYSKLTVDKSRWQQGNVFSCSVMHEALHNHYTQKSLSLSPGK
UniProt O14798, 26-161 with tags or gaps: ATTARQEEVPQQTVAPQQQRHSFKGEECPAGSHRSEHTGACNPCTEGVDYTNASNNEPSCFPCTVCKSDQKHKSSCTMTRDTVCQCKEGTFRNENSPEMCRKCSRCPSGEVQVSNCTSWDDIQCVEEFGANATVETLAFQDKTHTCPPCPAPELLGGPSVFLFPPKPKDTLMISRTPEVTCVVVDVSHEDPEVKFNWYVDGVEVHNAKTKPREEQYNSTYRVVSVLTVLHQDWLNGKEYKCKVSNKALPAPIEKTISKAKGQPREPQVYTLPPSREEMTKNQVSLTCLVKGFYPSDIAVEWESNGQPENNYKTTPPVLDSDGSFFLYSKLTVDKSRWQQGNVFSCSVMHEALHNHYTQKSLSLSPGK
UniProt P19438, 30-211 with tags or gaps: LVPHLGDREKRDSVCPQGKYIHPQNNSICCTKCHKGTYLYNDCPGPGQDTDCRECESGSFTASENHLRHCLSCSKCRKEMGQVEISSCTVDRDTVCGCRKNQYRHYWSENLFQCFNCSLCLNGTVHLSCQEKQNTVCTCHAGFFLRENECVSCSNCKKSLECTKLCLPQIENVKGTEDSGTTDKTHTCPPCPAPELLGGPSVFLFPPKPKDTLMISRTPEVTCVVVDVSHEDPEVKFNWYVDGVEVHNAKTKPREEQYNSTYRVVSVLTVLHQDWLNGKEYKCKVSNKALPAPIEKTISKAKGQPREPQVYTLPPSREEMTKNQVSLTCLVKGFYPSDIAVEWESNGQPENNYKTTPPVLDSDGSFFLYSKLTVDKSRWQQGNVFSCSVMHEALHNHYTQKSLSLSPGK
UniProt O00220, 24-239 with tags or gaps H141R/R209T: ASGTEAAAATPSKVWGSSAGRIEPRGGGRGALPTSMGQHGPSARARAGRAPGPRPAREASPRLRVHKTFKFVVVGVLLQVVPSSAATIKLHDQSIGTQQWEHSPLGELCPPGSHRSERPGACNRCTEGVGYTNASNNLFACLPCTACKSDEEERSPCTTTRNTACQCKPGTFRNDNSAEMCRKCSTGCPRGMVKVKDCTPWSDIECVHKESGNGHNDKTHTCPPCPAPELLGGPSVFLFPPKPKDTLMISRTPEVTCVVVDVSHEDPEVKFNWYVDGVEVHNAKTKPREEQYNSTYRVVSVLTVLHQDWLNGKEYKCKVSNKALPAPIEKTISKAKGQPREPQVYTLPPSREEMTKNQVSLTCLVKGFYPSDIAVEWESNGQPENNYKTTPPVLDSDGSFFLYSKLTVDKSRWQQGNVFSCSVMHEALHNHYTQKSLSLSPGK
UniProt O14763, 56-184 with tags or gaps: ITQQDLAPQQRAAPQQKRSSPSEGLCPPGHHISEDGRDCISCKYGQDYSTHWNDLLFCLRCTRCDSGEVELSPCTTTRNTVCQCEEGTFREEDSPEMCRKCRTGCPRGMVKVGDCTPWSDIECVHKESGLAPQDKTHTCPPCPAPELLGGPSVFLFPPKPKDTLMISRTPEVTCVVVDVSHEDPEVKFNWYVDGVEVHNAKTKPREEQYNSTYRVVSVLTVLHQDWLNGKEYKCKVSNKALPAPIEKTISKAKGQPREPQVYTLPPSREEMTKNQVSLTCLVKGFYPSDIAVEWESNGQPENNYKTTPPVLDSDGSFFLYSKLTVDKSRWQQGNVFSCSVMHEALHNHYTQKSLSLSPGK

What was measured:
[1] = tested on: Cyno DR5 IgG (SEQ ID NO: 112); test: Ic50 cross-reactivity ELISA, Cyno DR5 IgG; conditions: read-out: Cyno DR5 IgG (SEQ ID NO: 112) Ic50; Table IV cross-reactivity; phage clones
[2] = tested on: Cyno DR4 IgG (SEQ ID NO: 111); test: Ic50 cross-reactivity ELISA, Cyno DR4 IgG; assay type: binding; conditions: read-out: Cyno DR4 IgG (SEQ ID NO: 111) Ic50; Table IV cross-reactivity; phage clones
[3] = target: Hu DcR2 IgG (SEQ ID NO: 107) (Homo sapiens, UniProt Q9UBN6); test: Ic50 cross-reactivity ELISA, Hu DcR2 IgG; assay type: binding; conditions: read-out: Hu DcR2 IgG (SEQ ID NO: 107) Ic50; Table IV cross-reactivity; phage clones
[4] = target: Hu DcR1 IgG (SEQ ID NO: 106) (Homo sapiens, UniProt O14798); test: Ic50 cross-reactivity ELISA, Hu DcR1 IgG; assay type: binding; conditions: read-out: Hu DcR1 IgG (SEQ ID NO: 106) Ic50; Table IV cross-reactivity; phage clones
[5] = target: Hu TNFR IgG (SEQ ID NO: 110) (Homo sapiens, UniProt P19438); test: Ic50 cross-reactivity ELISA, Hu TNFR IgG; assay type: binding; conditions: read-out: Hu TNFR IgG (SEQ ID NO: 110) Ic50; Table IV cross-reactivity; phage clones
[6] = target: Hu DR4 IgG (SEQ ID NO: 108) (Homo sapiens, UniProt O00220, H141R/R209T); test: Ic50 cross-reactivity ELISA, Hu DR4 IgG; assay type: binding; conditions: read-out: Hu DR4 IgG (SEQ ID NO: 108) Ic50; Table IV cross-reactivity; phage clones
[7] = target: Hu DR5 IgG (SEQ ID NO: 109) (Homo sapiens, UniProt O14763); test: Ic50 cross-reactivity ELISA, Hu DR5 IgG; assay type: binding; conditions: read-out: Hu DR5 IgG (SEQ ID NO: 109) Ic50; Table IV cross-reactivity; phage clones

## CC(C)C[C@H](NC(=O)[C@H](CCCCN)NC(=O)[C@H](CO)NC(=O)[C@H](CS)NC(=O)[C@H](CC(C)C)NC(=O)[C@@H](NC(=O)[C@H](CC(C)C)NC(=O)[C@H](CS)NC(=O)[C@@H](NC(=O)[C@H](CCCNC(=N)N)NC(=O)CN)C(C)C)[C@@H](C)O)C(=O)N[C@H](C(=O)O)[C@@H](C)O
[1]
  IC50: 1.1 µM
[2]
  IC50: > 5 µM
[3]
  IC50: > 5 µM
[4]
  IC50: > 5 µM

## CC(C)C[C@H](NC(=O)[C@H](CCCCN)NC(=O)[C@H](CO)NC(=O)[C@H](CS)NC(=O)[C@H](CCC(=O)O)NC(=O)[C@@H](NC(=O)[C@H](CC(C)C)NC(=O)[C@H](CS)NC(=O)[C@@H](NC(=O)[C@H](CCCNC(=N)N)NC(=O)CN)C(C)C)[C@@H](C)O)C(=O)N[C@H](C(=O)O)[C@@H](C)O
[1]
  IC50: > 5 µM
[2]
  IC50: > 5 µM
[5]
  IC50: > 5 µM
[3]
  IC50: > 5 µM
[4]
  IC50: > 5 µM
[6]
  IC50: > 5 µM

## CC(C)C[C@H](NC(=O)[C@H](CCCNC(=N)N)NC(=O)[C@H](CO)NC(=O)[C@H](CS)NC(=O)[C@H](CCC(=O)O)NC(=O)[C@@H](NC(=O)[C@H](CC(C)C)NC(=O)[C@H](CS)NC(=O)[C@@H](NC(=O)[C@H](CCCNC(=N)N)NC(=O)CN)C(C)C)[C@@H](C)O)C(=O)N[C@H](C(=O)O)[C@@H](C)O
[1]
  IC50: > 5 µM
[5]
  IC50: > 5 µM
[3]
  IC50: 1 µM
[4]
  IC50: > 5 µM
[6]
  IC50: 5 µM

## CC(C)C[C@H](NC(=O)[C@H](CCCCN)NC(=O)[C@H](CO)NC(=O)[C@H](CS)NC(=O)[C@H](CCC(=O)O)NC(=O)[C@@H](NC(=O)[C@H](CC(C)C)NC(=O)[C@H](CS)NC(=O)[C@@H](NC(=O)[C@H](CCCNC(=N)N)NC(=O)CN)C(C)C)[C@@H](C)O)C(=O)N[C@@H](CCCNC(=N)N)C(=O)O
[1]
  IC50: > 5 µM
[2]
  IC50: > 5 µM
[5]
  IC50: > 5 µM
[3]
  IC50: > 5 µM
[7]
  IC50: 0.003 µM
[6]
  IC50: > 5 µM

## CC(C)C[C@H](NC(=O)[C@H](CCCNC(=N)N)NC(=O)[C@H](CO)NC(=O)[C@H](CS)NC(=O)[C@H](CCC(=O)O)NC(=O)[C@@H](NC(=O)[C@H](CC(C)C)NC(=O)[C@H](CS)NC(=O)[C@@H](NC(=O)[C@H](CCCNC(=N)N)NC(=O)CN)C(C)C)[C@@H](C)O)C(=O)N[C@@H](CCCNC(=N)N)C(=O)O
[1]
  IC50: > 5 µM
[5]
  IC50: > 5 µM
[4]
  IC50: 2 µM
[6]
  IC50: > 5 µM

## CC(C)C[C@H](NC(=O)[C@H](CCCNC(=N)N)NC(=O)[C@H](CO)NC(=O)[C@H](CS)NC(=O)[C@H](CC(C)C)NC(=O)[C@@H](NC(=O)[C@H](CC(C)C)NC(=O)[C@H](CS)NC(=O)[C@@H](NC(=O)[C@H](CCCNC(=N)N)NC(=O)CN)C(C)C)[C@@H](C)O)C(=O)N[C@H](C(=O)O)[C@@H](C)O
[1]
  IC50: 4.1 µM
[2]
  IC50: > 5 µM
[5]
  IC50: > 5 µM
[6]
  IC50: > 5 µM

## CC(C)C[C@H](NC(=O)[C@H](CCCCN)NC(=O)[C@H](CO)NC(=O)[C@H](CS)NC(=O)[C@H](CC(C)C)NC(=O)[C@@H](NC(=O)[C@H](CC(C)C)NC(=O)[C@H](CS)NC(=O)[C@@H](NC(=O)[C@H](CCCNC(=N)N)NC(=O)CN)C(C)C)[C@@H](C)O)C(=O)N[C@@H](CCCNC(=N)N)C(=O)O
[1]
  IC50: > 5 µM
[2]
  IC50: > 5 µM
[5]
  IC50: > 5 µM
[3]
  IC50: > 5 µM
[4]
  IC50: > 5 µM
[6]
  IC50: > 5 µM

Structures were worked out from names or drawings and are uncertain.
